Test systems include Galectin-3 (human); HAAO (human); HAS3 (human); HAVCR2 (human); HAX1 (human); HBD (human).
Experiment in all cases: protein microarray (ProtoArray v5.0), streptavidin-Alexa Fluor 647
Holding throughout (settings): 3'-biotin; 20 mM Tris (pH 7.5), 5 mM MgCl2, 100 mM KCl, 0.1% Tween-20, A/T-rich and random oligonucleotide blockers; temperature not stated; high values mean tight binding

Assay [1] concerns Ganglioside GM2 activator (human).
Assay [2] concerns Geranylgeranyl pyrophosphate synthetase (human).
Assay [3] concerns Glucose-6-phosphate translocase (human).
Assay [4] has as its system Glucose-fructose oxidoreductase domain-containing protein 1 (human).
Assay [5] relates to Glutamate decarboxylase 1 (human).
The test system of assay [6] is Glutamate decarboxylase 2 (human).
The subject of assay [7] is Glutaminyl-tRNA synthetase (human).
Assay [8] concerns Glutathione S-transferase A4 (human).
The test system of assay [9] is Glutathione S-transferase Mu 5 (human).
The subject of assay [10] is Glycolipid transfer protein (human).
The test system of assay [11] is Glycosyltransferase 1 domain-containing protein 1 (human).
In assay [12] the test system is Guanine nucleotide exchange factor for Rab3A (human).
Assay [13] deals with Guanine nucleotide-binding protein subunit alpha-11 (human).
Assay [14] relates to Guanylate cyclase activator 2B (human).

This is one part of the list.

For “GGTGACAGGGGTATGGGGAGGGG [G4-2 biotinylated (Ct1)]”, the binding signal in the assay on Galectin-3 (human) was -0.393 z-score; in assay [1], -0.379 z-score; in assay [2], -0.395 z-score; in [3], -0.389 z-score; in assay [4], -0.397 z-score; in assay [5], -0.38 z-score. Moreover, the binding signal was -0.391 z-score in assay [6]; -0.393 z-score in assay [7]; -0.39 z-score in assay [8]; -0.393 z-score in [9]; -0.4 z-score in [10]; -0.359 z-score in [11]. Also, the binding signal in [12] was -0.375 z-score; in assay [13], -0.376 z-score; in assay [14], -0.37 z-score; in the assay with HAAO (human), -0.399 z-score; in the assay on HAS3 (human) it was -0.378 z-score; in the assay on HAVCR2 (human), -0.391 z-score. The binding signal is -0.377 z-score in the assay on HAX1 (human) and -0.373 z-score in the assay on HBD (human).
